Part of at least one peptide drawing is inferred or uncertain, most often the ends. Non-standard residues stand in square brackets, D forms with d. Residues, ends and D or L forms follow the SMILES beside them. Oic = O=C(O)[C@@H]1C[C@@H]2CCCC[C@@H]2N1
Legend:
melanoma B16 = assay: Inhibition of the growth of the melanoma B16; assay type: in vivo, mice; details: intraperitoneally 20 μg/kg 3 times per week
tumoral cells YAC-1 = assay: Promotion of the N.K. activity (chromium liberation from labelled YAC-1 cells by spleen cells of treated mice); assay type: in vivo, mice of strain B6D2F1; details: spleen cells taken three days after treatment
spleen lymphocytes = assay: Increase of the lymphocytic response to mitogens; assay type: in vivo; details: mice treated with 0.5 mg/kg; Concanavaline A 0.5 mg/ml
[1] = system: peritoneal macrophages of mice; assay: Stimulation of phagocytosis in vitro; assay type: cell-based, mice (strain B6 D2 F1); details: 25 micromols per dish; opsonized sheep red corpuscles; contact time 1 hour; macrophages with more than 2 red corpuscles ingested counted
[2] = system: Klebsiella pneumoniae 7823; assay: Increase in the resistance of animals to infection; assay type: in vivo, female Swiss mice; details: 60 μg per animal 48 hours before infection; inoculated i.p.

`C[C@@H](O)[C@H](N)C(=O)N[C@@H](CCCCN)C(=O)N1[C@H](C(=O)N[C@@H](CCCNC(=N)N)C(=O)O)C[C@@H]2CCCC[C@@H]21` [Example 1, (S) Thr-(S)Lys-(S)PHI-(S)Arg-OH] (H-TK[Oic]R-OH) was tested, and the “slowing down of the growth of melanoma B16” value (melanoma B16) was 40%.

For `C[C@@H](O)[C@H](N)C(=O)N[C@@H](CCCCN)C(=O)N1C2CCC(CC2)[C@H]1C(=O)N[C@@H](CCCNC(=N)N)C(=O)O` [Example 8, (S)Thr-(S)Lys-(S)ABO-(S)Arg-OH], the “increase in the liberation of chromium by comparison with a control” value (tumoral cells YAC-1; 25 μg/kg intravenously) was 15%.

With `CNCC(=O)N[C@@H](CCCCN)C(=O)N1C2CCC(CC2)[C@H]1C(=O)N[C@@H](CCCNC(=N)N)C(=O)O` [Example 14, Sar-(S)Lys-(S)ABO-(S)Arg-OH] the “proliferation relative to that of lymphocytes of animals that have not been treated” value (spleen lymphocytes) was 1.78 times.

In the case of `C[C@@H](O)[C@H](N)C(=O)N[C@@H](CCCCN)C(=O)N1CCC[C@H]1C(=O)N[C@@H](CCCNC(=N)N)C(=O)O` [tuftsine, Thr-Lys-Pro-Arg] (H-TKPR-OH), the “increase of the phagocytic capacity of the macrophages by comparison with control cultures” value [1] is reported as 15%, the “protection against death by infection (animals saved)” value [2] is reported as 20% and the “slowing down of the growth of melanoma B16” value (melanoma B16) is reported as “incapable of promoting any slowing down in the growth”. It also gave a liberation of chromium (tumoral cells YAC-1; 40 μg/kg intravenously) of 10%.
